Reference: US20100234238A1, “METHOD FOR PROFILING KINASE INHIBITORS” (Janssen Pharmaceutica N V, priority 2006, published 2010)
The source gives many values for each of these; only a part stands here.

Tested on: tyrosine kinase activity in lysates prepared from cell lines
Experiment: PAMCHIP96 tyrosine peptide array profiling of lysates of 27 cell lines in absence or presence of MTKI
Format: biochemical
Details: 5 μM
Excerpt: PAMGENE technology using the tyrosine peptide PAMCHIP96 allows the kinetic detection of the phosphorylation of 144 tyrosine peptides spotted onto a 3-dimensional porous well of a 96-well plate (www.pamgene.com). This technology can be used to measure the activity of purified kinases and the effects of kinase inhibitors thereon. Phosphotyrosine peptides are detected using a mix of fluorescently labeled anti-phosphotyrosine antibodies. Phosphorylation of peptides can be followed in real time due to the possibility of removing the reaction mix for a few seconds during the assay by a pumping mechanism to allow CCD camera detection of phosphopeptides bound to the fluorescent antibody. These consecutive datapoints (quantified spot images) generate a kinetic curve for each individual peptide, and allow for the calculation of initial velocities and endpoints associated with each individual peptide.
Cells cultured in appropriate medium in T175 flasks, treated with compound if necessary, are harvested at 70-90% confluency.
Media is removed, cells are washed with 10 ml ice cold PBS containing 0.1 mM NaVO4 and lysed in 1 ml of M-PER buffer (PIERCE) containing phosphatase and protease inhibitors (HALT, PIERCE). Cells are collected by scraping, and centrifuged for 10 minutes at 12 000×g. Supernatant lysates are filtered through a 0.2 micrometer filter (Anotop 0.2 μm anopore filter; Whatmann). Lysates are flash frozen in liquid nitrogen and stored at −80C.
Just prior to the PAMCHIP experiment, total protein content is quantitated in the lysates and lysates are diluted to 1 mg/ml in a total volume of 200 μl, with M-PER phosphatase and protease inhibitors (HALT, PIERCE). 10 μg of total lysate (corresponding to 10 μl) will be used per well on the PAMCHIP96.
To all 200 μl lysates 10 units of benzonase (Novagen) is added and lysates are further incubated for 30 min on ice and next centrifuged for 10 minutes at 12 000×g. The supernatant is then 1:1 diluted with compound or DMSO diluted to the appropriate concentration in water, and lysates are further incubated exactly 60 min on ice. Meanwhile, a PAMCHIP96 tyrosine peptide chip (PAMGENE) is blocked with 2% BSA (filtered through a 0.2 μm anopore filter; Whatmann) using the standard setting of a PAMSTATION96 (PAMGENE).
The composition of the kinase buffer is as follows: 1×ABL buffer (NEB), 0.5 mg/ml BSA (from 10 mg/ml NEB stock), 100 μM ATP (dissolved and diluted in 1×ABL buffer), 5 μg/ml PY20-FITC (ExAlpha Biologicals, azide-free preparation). A twofold concentrated kinase buffer is prepared chilled on ice, DMSO or compound is added as appropriate, and the solution is added 1:1 to the (compound treated) ice cold lysates, and immediately applied to a tyrosine peptide PAMCHIP96. The assay is run on a PAMSTATION96 according to standard procedures: after loading of the plate, solution is pumped once onto the wells, a first exposure is read (150 mSec) and then a kinetic reading program (reading every 5 min for 150 mSec) is run for 60 min. Lysates are run in 6 technical replicates for each condition; replicates are always applied horizontally next to each other to avoid vertical strip effects of the chip.
The data (spot images) are further quantified and linked to the peptide identities using EVOLVE PAMGRID software (PAMGENE). The quantified data are then fit to a curve using CurveFitHT software (PAMGENE) using the Vinip2 curve fitting algorithm, applied on the first 30 min of the assay; the initial velocity is derived at the first kinetic time point read. All subsequent data analyses were done on initial velocities (Vini) using the software packages Omniviz and R (Ihaka, R. and Gentlemen, R. (1996) R: a language for data analysis and graphics. J. Comput. Graph. Stat., 5, 299-314).
After replacing the Vini's lower than 0.1 by 0.1, all Vini's were log 2-transformed to approach normality.

Measured: ratio of initial velocity of peptide phosphorylation

COc1cc2ncnc3c2cc1OCCCCCN(C)Cc1ccc(Br)cc1N3 [MTKI, 4,6-ethanediylidenepyrimido[4,5-b][6,1,12]benzoxadiazacyclopentadecine, 17-bromo-8,9,10,11,12,13,14,19-octahydro-20-methoxy-13-methyl-]
1.06: SUM149 lysate, NCF1_313_325_S315/S320 | U118MG lysate, GSK3B_209_221_Y216
0.91: MKN45 lysate, ENOG_37_49_Y43 | MOLT4 lysate, CDK7_157_169_S164 | SNU5 lysate, STAT2_683_695_Y690 | SUM149 lysate, ENOG_37_49_Y43 | U118MG lysate, PLCG1_764_776_Y771 | U118MG lysate, TYRO3_679_691_Y686
0.95: MKN45 lysate, MK10_216_228_T221/Y223 | MKN45 lysate, NCF1_313_325_S315/S320 | MOLT4 lysate, STAT2_683_695_Y690 | RSJSA1 lysate, ENOG_37_49_Y43 | SHSY5Y lysate, TYRO3_679_691_Y686 | SNU5 lysate, DDR2_733_745_Y740 | SUM149 lysate, PLCG1_764_776_Y771
1.29: MDAMB435s lysate, MK10_216_228_T221/Y223
0.71: SUM149 lysate, PRRX2_202_214_Y214
0.96: MOLT4 lysate, NPT2_501_513_T508 | RSJSA1 lysate, MK10_216_228_T221/Y223 | RSJSA1 lysate, NPT2_501_513_T508 | SHSY5Y lysate, PECA1_706_718_Y713 | SHSY5Y lysate, PLCG1_764_776_Y771
1.08: MDAMB435s lysate, CDK7_157_169_S164
1.09: MDA231PAR lysate, NPT2_501_513_T508 | MDAMB435s lysate, CREB1_122_134_Y134/S133 | MDAMB435s lysate, NCF1_313_325_S315/S320 | MDAMB435s lysate, STAT2_683_695_Y690 | SUM159 lysate, STAT2_683_695_Y690
1.07: MDAMB435s lysate, DDR2_733_745_Y740
0.99: MDA231PAR lysate, TYRO3_679_691_Y686 | MKN45 lysate, GSK3B_209_221_Y216 | RSJSA1 lysate, CREB1_122_134_Y134/S133 | SHSY5Y lysate, ENOG_37_49_Y43 | SNU5 lysate, MK10_216_228_T221/Y223 | SNU5 lysate, NCF1_313_325_S315/S320 | SUM159 lysate, NCF1_313_325_S315/S320 | U118MG lysate, CREB1_122_134_Y134/S133
0.84: MDAMB435s lysate, ENOG_37_49_Y43 | SNU5 lysate, PLCG1_764_776_Y771 | SUM159 lysate, PRRX2_202_214_Y214
0.77: MOLT4 lysate, ENOG_37_49_Y43 | MOLT4 lysate, PECA1_706_718_Y713 | SKBR3 lysate, ENOG_37_49_Y43
0.17: MOLT4 lysate, PGFRB_768_780_Y771/Y775/Y778
1.26: SHSY5Y lysate, NCF1_313_325_S315/S320
0.94: MKN45 lysate, CREB1_122_134_Y134/S133 | MKN45 lysate, DDR2_733_745_Y740 | MKN45 lysate, SYN1_2_14_S9 | U118MG lysate, NPT2_501_513_T508 | U118MG lysate, RASA1_453_465_Y460
1.11: MDA231PAR lysate, DDR2_733_745_Y740 | RSJSA1 lysate, GSK3B_209_221_Y216 | SHSY5Y lysate, SYN1_2_14_S9
0.72: MOLT4 lysate, PRRX2_202_214_Y214 | SUM149 lysate, CDK7_157_169_S164
0.86: MDA231PAR lysate, PECA1_706_718_Y713
0.83: MDA231PAR lysate, MK10_216_228_T221/Y223 | MKN45 lysate, PECA1_706_718_Y713 | NCI-N87 lysate, GSK3B_209_221_Y216 | SUM149 lysate, DDR2_733_745_Y740 | SUM159 lysate, CDK7_157_169_S164 | SUM159 lysate, DDR2_733_745_Y740
0.58: SUM149 lysate, PGFRB_768_780_Y771/Y775/Y778
0.79: MOLT4 lysate, RASA1_453_465_Y460 | SUM149 lysate, MK10_216_228_T221/Y223 | SUM159 lysate, PLCG1_764_776_Y771
1.01: SHSY5Y lysate, DDR2_733_745_Y740 | SNU5 lysate, CREB1_122_134_Y134/S133 | SNU5 lysate, SYN1_2_14_S9
1.17: RSJSA1 lysate, RASA1_453_465_Y460 | SHSY5Y lysate, CREB1_122_134_Y134/S133 | SHSY5Y lysate, NPT2_501_513_T508 | SHSY5Y lysate, STAT2_683_695_Y690
0.92: MDA231PAR lysate, SYN1_2_14_S9 | MKN45 lysate, PLCG1_764_776_Y771 | MKN45 lysate, RASA1_453_465_Y460 | SHSY5Y lysate, PRRX2_202_214_Y214 | SNU5 lysate, RASA1_453_465_Y460 | U118MG lysate, PECA1_706_718_Y713
1.05: MDAMB435s lysate, NPT2_501_513_T508 | RSJSA1 lysate, SYN1_2_14_S9 | U118MG lysate, NCF1_313_325_S315/S320
0.78: MOLT4 lysate, DDR2_733_745_Y740 | SNU484 lysate, GSK3B_209_221_Y216 | SUM149 lysate, NPT2_501_513_T508
0.89: SKBR3 lysate, GSK3B_209_221_Y216 | SNU5 lysate, PGFRB_768_780_Y771/Y775/Y778 | SNU5 lysate, PRRX2_202_214_Y214 | SNU5 lysate, TYRO3_679_691_Y686 | SUM149 lysate, STAT2_683_695_Y690 | SUM159 lysate, MK10_216_228_T221/Y223
0.76: MDAMB435s lysate, PECA1_706_718_Y713 | SUM149 lysate, TYRO3_679_691_Y686
1.00: MDA231PAR lysate, STAT2_683_695_Y690 | MKN45 lysate, TYRO3_679_691_Y686 | RSJSA1 lysate, NCF1_313_325_S315/S320 | U118MG lysate, DDR2_733_745_Y740
0.98: MCF7 lysate, TYRO3_679_691_Y686 | MDA231PAR lysate, GSK3B_209_221_Y216 | MDAMB435s lysate, PLCG1_764_776_Y771 | SNU5 lysate, CDK7_157_169_S164 | SNU5 lysate, GSK3B_209_221_Y216 | SNU5 lysate, NPT2_501_513_T508 | SUM159 lysate, NPT2_501_513_T508
1.14: MDAMB435s lysate, GSK3B_209_221_Y216
1.03: MDA231PAR lysate, NCF1_313_325_S315/S320 | MDAMB435s lysate, PRRX2_202_214_Y214 | RSJSA1 lysate, PRRX2_202_214_Y214 | RSJSA1 lysate, STAT2_683_695_Y690 | SUM159 lysate, CREB1_122_134_Y134/S133 | SUM159 lysate, SYN1_2_14_S9 | U118MG lysate, PRRX2_202_214_Y214
0.81: RSJSA1 lysate, CDK7_157_169_S164 | SNU5 lysate, ENOG_37_49_Y43 | SNU5 lysate, PECA1_706_718_Y713
0.85: MOLT4 lysate, MK10_216_228_T221/Y223 | RSJSA1 lysate, PECA1_706_718_Y713 | U118MG lysate, CDK7_157_169_S164 | U118MG lysate, ENOG_37_49_Y43
0.93: MDA231PAR lysate, ENOG_37_49_Y43 | MDA231PAR lysate, PLCG1_764_776_Y771 | MDAMB435s lysate, TYRO3_679_691_Y686 | SUM149 lysate, RASA1_453_465_Y460
1.18: MOLT4 lysate, NCF1_313_325_S315/S320
1.04: MDA231PAR lysate, CREB1_122_134_Y134/S133 | MKN45 lysate, PGFRB_768_780_Y771/Y775/Y778 | MKN45 lysate, PRRX2_202_214_Y214
0.90: MKN45 lysate, CDK7_157_169_S164 | RSJSA1 lysate, PLCG1_764_776_Y771
1.22: MOLT4 lysate, SYN1_2_14_S9 | RSJSA1 lysate, TYRO3_679_691_Y686
0.87: SHSY5Y lysate, GSK3B_209_221_Y216 | SHSY5Y lysate, RASA1_453_465_Y460 | SUM149 lysate, PECA1_706_718_Y713 | SUM159 lysate, PECA1_706_718_Y713 | SUM159 lysate, TYRO3_679_691_Y686
1.12: MDAMB435s lysate, SYN1_2_14_S9
0.82: SUM159 lysate, ENOG_37_49_Y43 | SUM159 lysate, RASA1_453_465_Y460
1.10: SHSY5Y lysate, MK10_216_228_T221/Y223
0.97: MDA231PAR lysate, PRRX2_202_214_Y214 | MKN45 lysate, NPT2_501_513_T508 | MKN45 lysate, STAT2_683_695_Y690 | MOLT4 lysate, TYRO3_679_691_Y686 | SHSY5Y lysate, CDK7_157_169_S164 | U118MG lysate, MK10_216_228_T221/Y223 | U118MG lysate, STAT2_683_695_Y690
1.19: MOLT4 lysate, GSK3B_209_221_Y216
0.41: SUM149 lysate, GSK3B_209_221_Y216
0.88: MDAMB435s lysate, RASA1_453_465_Y460 | SUM149 lysate, CREB1_122_134_Y134/S133
1.13: MDA231PAR lysate, CDK7_157_169_S164 | SUM159 lysate, GSK3B_209_221_Y216
0.80: MDA231PAR lysate, RASA1_453_465_Y460 | MOLT4 lysate, PLCG1_764_776_Y771
1.02: MOLT4 lysate, CREB1_122_134_Y134/S133 | RSJSA1 lysate, DDR2_733_745_Y740 | SUM149 lysate, SYN1_2_14_S9 | U118MG lysate, SYN1_2_14_S9
